# According to PubChem BioAssay AID504834 (National Center for Advancing Translational Sciences (NCATS), 2011):
# Screen size: about 320,000 compounds; about 22,000 (6.9%) were called active. The inconclusive results got no clear call from the source; some entries with a clear call stand among them for comparison. Calls follow the shape of the dose curve; as a rule, active = well fitted inhibition curve with a large enough effect; inconclusive = small, poorly fitted or top-dose-only effect, or another doubt; inactive = no such curve, though single readings can be large or run the other way. Where the call is inconclusive, the potency comes from a doubtful curve fit.
# Assay: Primary qHTS for delayed death inhibitors of the malarial parasite plastid, 96 hour incubation
# Details: P. falciparum luciferase reporter growth; series mostly up to 28.7 µM
# Procedure, shortened: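 Readout is luminescence from an integrated firefly luciferase in P. falciparum. Red cells, 2% hematocrit and 0.05% parasitemia final, were cultured with compound through two parasite generations (96 hours) at 37 C, 5% CO2.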
# Potency is read from the fitted curve at half-maximal effect.
row,SMILES,Potency
1,CC1=CC(C)(C)N(C(=O)CNC2CCCCC2)c2cc(C)ccc21,"inconclusive: 18.5 µM [inhibitor, single point]"
2,O=C(O)c1ccc(-[n+]2c(-c3ccccc3)cc(-c3ccccc3)cc2-c2ccccc2)cc1,"inconclusive: 18.5 µM [inhibitor, single point]"
3,Cc1ccc(C)c(NC(=O)Cc2coc3cc4c(cc23)CCC4)c1,"inconclusive: 6.57 µM [inhibitor, partial curve]"
4,C[C@@]12CCC(=O)C=C1C=CC1C2CC[C@]2(C)C1CC[C@@]21CCC(=O)O1 (stereo not given in full),"inconclusive: 6.01 µM [inhibitor, partial curve]"
5,CCOC(=O)c1[nH]c(C)c(C(=O)Nc2ccc(C)c(F)c2)c1C,inactive
6,CC(=O)Nc1ccccc1NC(=O)C/C(C)=N/NC(=O)C1CCCCC1,inactive
7,CN1CCN(c2ccc(Cl)cc2NS(=O)(=O)c2ccccc2Cl)CC1,"inconclusive: 11.7 µM [inhibitor, single point]"
8,c1ccc2[nH]c(CCNC3CCCCC3)nc2c1,inactive
9,COc1ccc(S(=O)(=O)N2CCC(C(=O)N[C@H](C(=O)N3CCCC3)C(C)C)CC2)cc1,"inconclusive: 18.5 µM [inhibitor, single point]"
10,Brc1ccc(-c2csc(N3CCc4ccccc4C3)n2)cc1,inactive
11,Cn1nc(N2CCN(S(=O)(=O)c3ccccc3)CC2)c(=O)n(C)c1=O,"inconclusive: 18.5 µM [inhibitor, single point]"
12,COc1ccc(C)c2sc(=NC(=O)C(C)C)n(C)c12,inactive
13,O=C(c1ccccn1)N1CCN(C(=O)c2ccccn2)CC1,inactive
14,COC(=O)CC1C(=O)NC2CCCCC2N1C(=O)CCl (stereo not given),"inconclusive: 3.29 µM [inhibitor, partial curve, poor fit]"
15,O=C1CC(Sc2ccc(Cl)cc2)C(=O)N1Cc1ccncc1 (stereo not given),inactive
16,O=C(CSc1nnnn1-c1ccc(Cl)cc1)Nc1cccnc1Cl,inactive
17,O=C(N[C@@H](Cc1ccccc1)C(=O)O)c1ccncc1,inactive
18,CC(=O)Nc1nc2c(s1)C(=O)NCCC2,inactive
19,CCCNS(=O)(=O)c1ccc(OCC(=O)N2CCN(C)CC2)cc1,"inconclusive: 4.15 µM [inhibitor, partial curve, poor fit]"
20,Cc1cc(OCC(=O)Nc2ccncc2)ccc1Cl,"inconclusive: 18.5 µM [inhibitor, single point]"
21,CC(C)CN1CCN(Cc2cccn2-c2ccc(Cl)cn2)CC1CCO (stereo not given),inactive
22,COCC(=O)N1CCC(Oc2ccc(C(=O)N[C@H](C(=O)OC)C(C)C)cc2)CC1,"inconclusive: 13.1 µM [inhibitor, single point]"
23,COc1ccc(C(=O)C(C)Oc2cccc(NC(=O)c3cccc([N+](=O)[O-])c3)c2)cc1 (stereo not given),"inconclusive: 3.29 µM [inhibitor, full curve]"
24,CCS(=O)(=O)c1ccc(O)c(NC(=O)COc2ccc(OC)cc2)c1,"inconclusive: 9.28 µM [inhibitor, partial curve, poor fit]"

row,SMILES,Potency
1,CCOC(=O)Cc1csc(NC(=O)NC2(C(F)(F)F)Oc3ccc(Cl)cc3O2)n1 (stereo not given),"inconclusive: 18.5 µM [inhibitor, single point]"
2,CC1(C)Cc2c(c(-c3ccco3)nc3sc4c(NCC5CCCO5)ncnc4c23)CO1 (stereo not given),"inconclusive: 18.5 µM [inhibitor, single point]"
3,Cc1c(OCC(=O)N2CCC(C(N)=O)CC2)ccc2c3c(c(=O)oc12)CCCC3,"inconclusive: 18.5 µM [inhibitor, single point]"
4,O=C(C1CCC(=O)N(C2CCCC2)C1)N1CCC(Oc2ccccc2Cl)CC1 (stereo not given),inactive
5,CCOC(=O)C1=CC[C@@H](c2cc3ccc(OC)cc3n2C)N(S(=O)(=O)c2ccc(C)cc2)[C@H]1C(=O)OCC,"inconclusive: 3.7 µM [inhibitor, partial curve]"
6,O=C(COc1coc(CN2CCc3ccccc3C2)cc1=O)Nc1cccc(Cl)c1,"inconclusive: 9.28 µM [inhibitor, partial curve]"
7,CN(C)S(=O)(=O)c1cccc(NC(=O)c2cc([N+](=O)[O-])ccc2N2CCCCC2)c1,"inconclusive: 18.5 µM [inhibitor, single point]"
8,CC(C)CC1=C/C(=C/c2ccc(-c3ccccc3)o2)C(=O)O1,"inconclusive: 10.4 µM [inhibitor, partial curve, poor fit]"
9,c1ccc2c(c1)C(=NC1CCCCC1)NC2=NC1CCCCC1,active: 2.94 µM
10,CC(=O)N1c2ccc(S(=O)(=O)NCCC(=O)N(C)Cc3ccccc3)cc2CC1C (stereo not given),active: 7.38 µM
11,CCOc1ccccc1-n1nnnc1SCC(=O)NC(=O)NCc1ccco1,inactive
12,CCOC(=O)c1ccc2nc(NC(=O)c3cccs3)sc2c1,inactive
13,COc1ccccc1CN(CC(=O)NCc1ccc2c(c1)OCO2)C(=O)c1csnn1,"inconclusive: 14.7 µM [inhibitor, single point]"
14,O=C(CCCN1C(=O)c2ccccc2C1=O)Oc1ccc(F)cc1,inactive
15,Clc1ccc(CSc2nnc3c(n2)[nH]c2ccccc23)cc1,"inconclusive: 5.86 µM [inhibitor, partial curve]"
16,N#Cc1cccc(NC(=O)COc2ccc(-n3ccnc3)cc2)c1,"inconclusive: 10.4 µM [inhibitor, single point]"
17,O=C(CSc1nnc(-c2ccccc2O)o1)Oc1ccc(OCc2ccccc2)cc1,"inconclusive: 10.4 µM [inhibitor, single point]"
18,CCCc1nnc(NC(=O)Nc2ccccc2OC)s1,inactive
19,O=C(c1ccccc1Nc1ccc(SC(F)F)cc1)N1CCCCCC1,"inconclusive: 18.5 µM [inhibitor, single point]"
20,CC(C)NC(=O)Cn1cnc2c(cnn2-c2ccc(F)cc2)c1=O,inactive
21,O=C(Nc1nccs1)c1ccc(N2CCOCC2)c([N+](=O)[O-])c1,inactive
22,CCCOc1ccc2[nH]c(C(=O)N/N=C/c3cc(OC)c(OC)c(OC)c3)cc2c1,"inconclusive: 18.5 µM [inhibitor, single point]"
23,Cc1ccc(C(C)C)c(OCC(=O)N2CCN(Cc3nc4cc([N+](=O)[O-])ccc4n3C)CC2)c1,active: 11.7 µM
24,CC(=O)OC(C(=O)N1CCN(c2ccccc2F)CC1)c1ccccc1 (stereo not given),"inconclusive: 0.0026 µM [inhibitor, full curve, poor fit]"

row,SMILES,Potency
1,C#CCOCCOCCOCCNc1nc(N2CCN(C(=O)[C@H]([C@@H](C)CC)n3cc([C@@H](N)Cc4ccc(O)cc4)nn3)CC2)nc(N2CCN(C(=O)[C@H](CCCCN)n3cc([C@@H](N)C(C)CC)nn3)CC2)n1 (stereo not given in full),inactive
2,CC(C)Oc1cccc(C(=O)NC(=S)Nc2cccc(NC(=O)c3ccccc3Cl)c2)c1,"inconclusive: 13.1 µM [inhibitor, single point]"
3,Cc1nc(-c2ccc(F)cc2)c(CC(=O)N2CCN(S(=O)(=O)c3cccc(F)c3)CC2)s1,"inconclusive: 13.1 µM [inhibitor, single point]"
4,Cc1cccc(Nc2nc(-c3ccncc3)cs2)c1,inactive
5,O=C(Oc1ccc(=O)n(-c2ccccc2)n1)c1cccc(Cl)c1,inactive
6,O=S(=O)(c1ccccc1)N1CCN(CC(O)COc2ccc3c(c2)CCC3)CC1 (stereo not given),inactive
7,CN(C)S(=O)(=O)c1ccc(Cl)c(NC(=O)CN2CCC(Cc3ccccc3)CC2)c1,"inconclusive: 18.5 µM [inhibitor, partial curve, poor fit]"
8,CCCCc1nnc(NC(=O)CSCc2cc(=O)n3c(C)csc3n2)s1,"inconclusive: 0.465 µM [inhibitor, full curve, poor fit]"
9,N#C/C(=N\Nc1ccc(F)cc1)C(=N)N1CCCCCC1,inactive
10,CCN(c1ccccc1)S(=O)(=O)c1ccc(C(=O)NNC(=O)c2ccccc2F)cc1,"inconclusive: 11.7 µM [inhibitor, single point]"
11,COCCSc1ccccc1C(=O)N1CCC(Cc2ccccc2)CC1,"inconclusive: 9.28 µM [inhibitor, single point]"
12,CCOC(=O)C(=Cc1cc(=O)c(OC)co1)C(=O)OCC,"inconclusive: 13.1 µM [inhibitor, single point]"
13,CC(C)Cc1cc(C(=O)Nc2ccc(F)cc2F)no1,"inconclusive: 1.31 µM [inhibitor, partial curve, poor fit]"
14,Cc1c(Cl)c([N+](=O)[O-])nn1CC(=O)NCc1ccc(Cl)cc1,"inconclusive: 18.5 µM [inhibitor, single point]"
15,Cc1ccc(C)c(S(=O)(=O)N2CCCOC2CNC(=O)C(=O)NCCC2=CCCCC2)c1 (stereo not given),inactive
16,COc1ccc(CNC(=O)c2ccc(Cn3nc(C)c([N+](=O)[O-])c3C)o2)cc1,inactive
17,COc1cccc(C(=O)NCC(=O)N2CCC3(CC2)NCCc2[nH]cnc23)c1OC,inactive
18,O=c1[nH]c(SCc2cccc(Cl)c2)nc2[nH]ncc12,inactive
19,C=CCN1C(=O)C(CC(=O)Nc2ccc(OCCC)cc2)N(CCCN2CCN(Cc3ccccc3)CC2)C1=S (stereo not given),"inconclusive: 18.5 µM [inhibitor, single point]"
20,CC(OC(=O)c1ccc(NC(=O)CC#N)cc1)C(=O)Nc1ccc(Oc2ccccc2)cc1 (stereo not given),"inconclusive: 10.4 µM [inhibitor, single point]"
21,CC(C)(C)NS(=O)(=O)c1ccc(OCC(=O)NCCC2=CCCCC2)cc1,"inconclusive: 8.28 µM [inhibitor, partial curve, poor fit]"
22,O=C(NCc1ccc(Cl)cc1)c1ccc(S(=O)(=O)N2CCCCC2)cc1,"inconclusive: 18.5 µM [inhibitor, single point]"

# Part of the list above, bar-delimited.
row | SMILES | Potency
9 | N#C/C(=N\Nc1ccc(F)cc1)C(=N)N1CCCCCC1 | inactive
12 | CCOC(=O)C(=Cc1cc(=O)c(OC)co1)C(=O)OCC | inconclusive: 13.1 µM [inhibitor, single point]
18 | O=c1[nH]c(SCc2cccc(Cl)c2)nc2[nH]ncc12 | inactive
